# Results published in PubChem BioAssay AID1347423 (Functional Genomics Laboratory (NCATS/FGL), 2020).
# In all, about 52,000 sequences went through this assay and about 210 (0.4%) were called active.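 Rule for the calls: active = gene whose silencing raises cell survival under the drug, median off-target-corrected z-score across its silencing RNAs 2 or more; inactive = the rest.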 The list shows a part of the results.
# Test: Resistance to Poly (ADP-Ribose) Polymerase inhibitor: Gene Identification via Genome-wide siRNA Screen
# Conditions: mouse BRCA2 R2336H ES cells, olaparib, CellTiter-Glo viability; hits give high values
# In short: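 Genome-wide siRNA screen (3 siRNAs/gene, 20 nM) in mouse ES cells carrying hypomorphic BRCA2 R2336H; olaparib 500 nM added 48 h post-transfection, CellTiter-Glo viability 72 h later. Normalized to plate-median negative control; MAD z-scores, gene median, seed-adjusted.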
row,Sequence,z-score
1,GGUCAGAAACUUCACCAAGTT against Ccr6,inactive: 0.0759
2,CCCUGAGCGAUUCAAUCUGTT against Trim27,inactive: -0.748
3,GCAUCGUCCUCCAAAGAUUTT against Sf3b1,inactive: -3.23
4,CCUGAAAACUCGUGAAGGGTT against Gnb1,inactive: -0.016
5,GGGAACAUGUUUUACUCUUTT against Zfp521,inactive: -0.448
6,GGUUCUCUGUACAAGAGAUTT against Smarcb1,inactive: -0.375
7,GGAAUGUCCAAAGCCUUCATT against Olfr907,inactive: -1.68
8,CCUUCAAGCUGUGCUUUUUTT against Olfr820,inactive: -0.802
9,GGCAAUGCUGGAUUCUCUATT against Solh,inactive: 2.28
10,GGUCUUGAAUUUAUGGAUUTT against Stab1,inactive: 1.58
11,GGACGGAGAGUUUAUUUUUTT against Ptgfrn,inactive: 0.871
12,GGUUACUAGAUGUAUUUUGTT against Ppp3cb,inactive: 1.81
13,CCAUAGACUGAAUCAACUATT against Rgs14,inactive: -0.204
14,CCUUCAACCUUCGAGAUACTT against Kcnh2,inactive: 0.797
15,GCUGUUUAUCUAGCUGUUATT against Mmp8,inactive: 1.87
16,CCUCAUCUAUCCCAUCUUUTT against Alad,inactive: 1.01
17,GGGAAGAGAAGUUAAAGGATT against Wnt8a,inactive: 0.979
18,GGAAAAGUUUCCACAAACCTT against 1700028P05Rik,inactive: 0.506
19,GCUCUAAAACUGUGUACUCTT against 4930579K19Rik,inactive: -0.508
20,ACACUCAUAGUCCAUUGUUTT against Gm1620,inactive: -0.299
21,GGUGUUACUAAUGUUUAUCTT against Cd209e,inactive: 0.428
22,CCAGUGUAGAGCACAAAUCTT against Ahr,inactive: 1.65

# As a working copy, part of the list above.
row,Sequence,z-score
4,CCUGAAAACUCGUGAAGGGTT against Gnb1,inactive: -0.016
5,GGGAACAUGUUUUACUCUUTT against Zfp521,inactive: -0.448
6,GGUUCUCUGUACAAGAGAUTT against Smarcb1,inactive: -0.375
7,GGAAUGUCCAAAGCCUUCATT against Olfr907,inactive: -1.68
8,CCUUCAAGCUGUGCUUUUUTT against Olfr820,inactive: -0.802
9,GGCAAUGCUGGAUUCUCUATT against Solh,inactive: 2.28

# Three entries drawn at random from the list so far, as already listed:
row,Sequence,z-score
1,GGUCAGAAACUUCACCAAGTT against Ccr6,inactive: 0.0759
13,CCAUAGACUGAAUCAACUATT against Rgs14,inactive: -0.204
4,CCUGAAAACUCGUGAAGGGTT against Gnb1,inactive: -0.016

# (list continues)

row,Sequence,z-score
1,CCAGAAUCGAUAGGCAGUCTT against Capn10,inactive: 1.18
2,GGAAGGUUUGUUUUGUUUGTT against Slc24a3,inactive: -0.0267
3,CCCAUCCUUCCAACCAGAATT against Coro2a,inactive: -1.84
4,GGUUCCAUCUUCUCAGGACTT against Olfr395,inactive: 1.59
5,GGCACUGCACGACAUAGCUTT against Indo,inactive: 2.61
6,GGCCCAGAGAGAAAAAUACTT against Acadvl,inactive: 0.15
7,GGAGAAAGGUGCUUCCGAUTT against Mrpl19,inactive: -0.304
8,GGUGACACAGCUGCUUUUCTT against Dact2,inactive: 0.0343
9,GGGUUUCCACAGACAAUGUTT against V1rg10,inactive: -0.26
10,GCAAGAGCACUGCUUAAAATT against E2f1,inactive: 1.53
11,GGCAGAUAGUACUGAUCAATT against Spt1,inactive: -2.25
12,GGUGUCUACUCUGAGUUGCTT against Usp52,inactive: 1.11
13,CAUCCUAGACCUCCAAGCATT against Smr1,inactive: 0.193
14,CGUGAAAAGGAGUUUCAAGTT against BC021891,inactive: 0.786
15,CCAGAAACCGUGAUAAAAUTT against Immp2l,inactive: 2.56
16,GGACAACUACAUUGUACUGTT against Insr,inactive: 0.537
17,GGUGUUGUGAAGUCUUUUGTT against Xkh,inactive: 0.677
18,GGGUAUGAAUAUGAGUGCCTT against 4933417O08Rik,inactive: 0.136
19,GGAUUUCAUUAUGUAGACUTT against Rag1,inactive: 0.558
20,CCCGAUGAAGUGUUUUUAGTT against Oosp1,inactive: 0.6
21,GGAUUUGCAUCUUAAGGAATT against ORF63,inactive: -1.83
22,GGAAAAACUGUGCAAAUAATT against Krtcap1,inactive: -1.79

row,Sequence,z-score
1,GGCUCUUCUCAACUCCAAGTT against Lmna,inactive: 0.338
2,CCGAGGUUGUGAAACGAUGTT against Trp63,inactive: -0.83
3,GGUGUAUCUGUUCUGUUAATT against Impg1,inactive: -0.834
4,GCUACAUGAUGUUGUGCAGTT against Sec22l2,inactive: 0.749
5,GCAAGCUGUACGCCAAUGUTT against D8Ertd457e,inactive: -2.29
6,GGUGAUUUUGACCAGUUCUTT against Cyp4v3,inactive: -0.185
7,GGGCCUGAUCUACCUGUUUTT against Slc6a18,inactive: -1
8,GGAUGUGAAGAUUGUCAUUTT against Usp5,inactive: -1.73
9,GGUAUGCAACCUUGCCUUUTT against D11Ertd99e,inactive: 0.235
10,CGCGUGCUCUCAUUAAUGATT against Gna12,inactive: -0.0774
11,GCAGAGAUAUCAAAUGGGATT against Atp6v1a1,inactive: 0.491
12,GGCCAUCACUAAAUAAUGGTT against D2Ertd485e,inactive: -0.403
13,GCUACAAAGAUCACGAAAATT against C2,inactive: 0.899
14,CCUAAUAGUGCCUAUGAUUTT against Smc2l1,inactive: -1.85
15,GGAUGUCACUGUUUCACAATT against Clic6,inactive: 0.416
16,CCUUUUGAGAGCUCCAGAUTT against 2210013M04Rik,inactive: 1.27
17,GGUCACCUUUAUGCUACUUTT against Traf1,inactive: -1.51
18,CCAAGCCUACUACCAUCAUTT against Fabp3,inactive: 1.04
19,UCUUCCGACUGCCUUUCUGTT against Olfr1417,inactive: 0.58
20,CGGAUUUACACCAGUACCATT against AI449175,inactive: -0.285
21,GGACCUAGAUUUUCUACACTT against Cask,inactive: 1.12
22,GGACUUUGAGUUAAAUGCATT against Myh7,inactive: -0.00646

row,Sequence,z-score
1,GGAAGUCCUAGUCAUCUUUTT against Mgat2,inactive: 0.739
2,GGGAAAAUCAAACAAAACCTT against Tcfap4,inactive: 3.27
3,CGAAACUGGAGAUGUUAUATT against Serpine1,inactive: 0.503
4,GCGAGAUGUCCUCAACAAGTT against Dusp16,inactive: 2.16
5,GGAGAAUGUGCCUACUUGATT against Clra,inactive: 0.851
6,GCUGACAAAACUGCUAAACTT against Catnb,inactive: 2.33
7,GGAGUUUGAUGAAUCGUCCTT against 2610025M23Rik,inactive: -0.595
8,GCCCGAGGCAUUGAAUUUGTT against 5033425B17Rik,inactive: 0.983
9,CCUACCUGAUUGUGACAUUTT against Arl6ip1,inactive: -0.37
10,GGUUUGUAUCUCACUUUUGTT against Olfr1247,inactive: -0.109
11,GGAAGUGACAGCUUUCGUCTT against 2310061B02Rik,inactive: -0.157
12,CCAUCUAUCUGGGAUCUCGTT against Cyp2a4,inactive: -2.52
13,GGGAGAUUGGAAACAAAAATT against Hsd3b4,inactive: -0.11
14,GGAACUUCAUCCAAACUGATT against Ap4m1,inactive: 1.3
15,GGCAUUGUUUUCAUUGUGGTT against Cldn7,inactive: 1.07
16,GGAUAAGGACAAUCAACUATT against Stab2,inactive: 1.65
17,CGGGAUUCAUAGAAACAAATT against Dcamkl1,inactive: 1.47
18,GGGAGGAGAGGACAAAUUATT against Ywhae,inactive: -1.45
19,GGUAGAGCAACUGUUUGCGTT against Myl7,inactive: 0.577
20,GCUUUUGAUAACUGCCUGGTT against 2310002A05Rik,inactive: 0.74
21,GGUCGUGUACUCGUUCAGUTT against Pcdh10,inactive: 0.201
22,GGAACUCCAGCUUUUGGUCTT against Sox13,inactive: -0.181

row,Sequence,z-score
1,GGUGCUAUUCUUUCUUGUCTT against Slc12a3,inactive: -0.561
2,GGAACGAACUAAGAAUGGATT against Mapk8,inactive: -0.299
3,GGACACCUUACAUUAUGAATT against Rasgrf1,inactive: 0.774
4,GGUGAUCUGGGUGUUGAUUTT against 2900084M01Rik,inactive: -0.0208
5,GGAUGCCAUUUACCGUGCUTT against Olfr1403,inactive: 0.858
6,GGCCAUUCAGAAGAUGCAGTT against Snapc2,inactive: 0.45
7,CCCUGAAUACUCUGAGUGGTT against Ucn,inactive: 0.0743
8,GGAGUUAAGCUAGAGAACUTT against 9330196J05Rik,inactive: 0.375
9,GGAUCUGACUGAAGAUCACTT against Asgr1,inactive: 1.91
10,GGUACAUGCUCAAGUUAUATT against Bmp15,inactive: -0.203
11,GGACUACCUGUGUAUGCUCTT against Wdr40b,inactive: 1.37
12,GGGCCAUUACAGAUGUGUUTT against Ly96,inactive: -1.19
13,GCAGCAGGAUUUCUCCAUUTT against Tcfl4,inactive: 0.3
14,GGGACUGUAUAUGUAAAGATT against 9130014G24,inactive: 1.16
15,GGAAGAGCCUGAGAAAAGCTT against Perp,inactive: 0.285
16,GGCUGAAGACAAACAAAAGTT against Tm9sf2,inactive: 1.81
17,GGAUGUUCAAGCGCAGAGATT against Gtf3a,inactive: -0.988
18,GGAGGAGUAUGAUGAAUAUTT against Anp32a,inactive: -1.42
